These results are taken from US20210388331A1 (NEURO BIO, published 2021).

The chains behind the UniProt entries cited, without tags or fusion partners. Residues count along the entry.
UniProt Q05941, residues 23-502: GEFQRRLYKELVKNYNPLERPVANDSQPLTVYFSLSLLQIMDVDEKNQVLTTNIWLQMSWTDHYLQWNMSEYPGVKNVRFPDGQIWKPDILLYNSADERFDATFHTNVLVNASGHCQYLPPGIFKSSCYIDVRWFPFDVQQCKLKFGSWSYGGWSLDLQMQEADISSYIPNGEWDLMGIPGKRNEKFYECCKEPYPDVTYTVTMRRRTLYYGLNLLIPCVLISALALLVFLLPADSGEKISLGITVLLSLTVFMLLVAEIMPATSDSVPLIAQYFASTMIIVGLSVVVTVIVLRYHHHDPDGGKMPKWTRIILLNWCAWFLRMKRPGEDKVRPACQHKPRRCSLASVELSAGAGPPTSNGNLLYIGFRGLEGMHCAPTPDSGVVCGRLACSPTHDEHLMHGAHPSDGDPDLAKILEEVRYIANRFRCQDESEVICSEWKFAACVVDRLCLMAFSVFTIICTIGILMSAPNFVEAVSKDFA

For experiment [1], the target named is α7 nicotinic acetylcholine receptor (in PC12 cells / PC12 cell membranes) (UniProt Q05941). Description: [3H] ivermectin displacement, PC12 cell membranes.
Experiment [2] shares this target. Description: [3H] ivermectin displacement, PC12 cell membranes (FIG. 6).

These are yes or no findings as the source states them, for the method shown. Some entries that bind do so weakly or less than the wild type.

AEFHRWSSYMVHWK (also called linear T14) [T14 (AChE C-terminal peptide, linear)]: the binding entry in experiment [1] and in experiment [2] was “binds” throughout.

Regarding KAEFHRWSSYMVHWKNQFDHYSKQDRCSDL [T30 (AChE C-terminal peptide, linear)], the binding result in experiment [1] and in experiment [2] was “binds” in each case.
